From the supplement of paper PMC10849652
The other results are listed elsewhere or left out.

By UniProt entry, the sequences of proteins in these tests, tags left out. Where a name states a change or a piece, a line headed by the entry shows the natural chain unless it says otherwise.
UniProt P11926: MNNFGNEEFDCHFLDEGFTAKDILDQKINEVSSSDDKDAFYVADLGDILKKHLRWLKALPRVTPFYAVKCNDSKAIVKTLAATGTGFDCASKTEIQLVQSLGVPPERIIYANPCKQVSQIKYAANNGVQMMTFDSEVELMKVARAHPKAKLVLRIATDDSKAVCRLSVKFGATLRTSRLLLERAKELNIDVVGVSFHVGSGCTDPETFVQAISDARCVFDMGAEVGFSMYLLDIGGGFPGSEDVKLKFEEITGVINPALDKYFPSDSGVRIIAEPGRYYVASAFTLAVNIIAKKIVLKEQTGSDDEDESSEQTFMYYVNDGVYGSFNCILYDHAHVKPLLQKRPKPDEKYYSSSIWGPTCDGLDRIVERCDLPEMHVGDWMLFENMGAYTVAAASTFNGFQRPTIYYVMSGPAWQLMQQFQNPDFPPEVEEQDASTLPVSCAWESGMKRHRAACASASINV
UniProt Q8N573: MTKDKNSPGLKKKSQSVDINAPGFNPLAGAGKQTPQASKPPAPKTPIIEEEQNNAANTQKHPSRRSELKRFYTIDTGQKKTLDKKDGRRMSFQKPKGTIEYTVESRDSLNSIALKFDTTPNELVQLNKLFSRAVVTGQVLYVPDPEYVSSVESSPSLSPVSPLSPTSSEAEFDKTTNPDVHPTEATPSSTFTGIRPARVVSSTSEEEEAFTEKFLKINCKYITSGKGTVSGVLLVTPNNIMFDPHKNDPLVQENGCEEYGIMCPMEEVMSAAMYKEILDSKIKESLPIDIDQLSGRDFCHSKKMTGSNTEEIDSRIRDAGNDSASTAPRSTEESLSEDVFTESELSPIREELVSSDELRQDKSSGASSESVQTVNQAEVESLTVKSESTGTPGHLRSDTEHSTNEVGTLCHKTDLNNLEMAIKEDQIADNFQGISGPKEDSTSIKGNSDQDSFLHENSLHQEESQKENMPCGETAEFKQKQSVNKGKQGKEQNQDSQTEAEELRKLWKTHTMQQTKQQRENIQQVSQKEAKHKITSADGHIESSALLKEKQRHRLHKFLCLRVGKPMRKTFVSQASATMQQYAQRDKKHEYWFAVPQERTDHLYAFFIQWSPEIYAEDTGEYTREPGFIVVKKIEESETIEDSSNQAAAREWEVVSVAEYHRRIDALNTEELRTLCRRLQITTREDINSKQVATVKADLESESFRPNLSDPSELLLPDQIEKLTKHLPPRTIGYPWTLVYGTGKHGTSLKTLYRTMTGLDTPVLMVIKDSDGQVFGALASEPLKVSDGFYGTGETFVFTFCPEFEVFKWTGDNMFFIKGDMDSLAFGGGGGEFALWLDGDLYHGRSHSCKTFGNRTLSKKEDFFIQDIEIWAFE
UniProt P50583: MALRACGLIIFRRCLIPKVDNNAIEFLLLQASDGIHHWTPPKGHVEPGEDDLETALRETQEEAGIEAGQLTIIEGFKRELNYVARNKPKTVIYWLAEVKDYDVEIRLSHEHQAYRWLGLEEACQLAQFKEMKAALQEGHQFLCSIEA
UniProt Q9BZF3: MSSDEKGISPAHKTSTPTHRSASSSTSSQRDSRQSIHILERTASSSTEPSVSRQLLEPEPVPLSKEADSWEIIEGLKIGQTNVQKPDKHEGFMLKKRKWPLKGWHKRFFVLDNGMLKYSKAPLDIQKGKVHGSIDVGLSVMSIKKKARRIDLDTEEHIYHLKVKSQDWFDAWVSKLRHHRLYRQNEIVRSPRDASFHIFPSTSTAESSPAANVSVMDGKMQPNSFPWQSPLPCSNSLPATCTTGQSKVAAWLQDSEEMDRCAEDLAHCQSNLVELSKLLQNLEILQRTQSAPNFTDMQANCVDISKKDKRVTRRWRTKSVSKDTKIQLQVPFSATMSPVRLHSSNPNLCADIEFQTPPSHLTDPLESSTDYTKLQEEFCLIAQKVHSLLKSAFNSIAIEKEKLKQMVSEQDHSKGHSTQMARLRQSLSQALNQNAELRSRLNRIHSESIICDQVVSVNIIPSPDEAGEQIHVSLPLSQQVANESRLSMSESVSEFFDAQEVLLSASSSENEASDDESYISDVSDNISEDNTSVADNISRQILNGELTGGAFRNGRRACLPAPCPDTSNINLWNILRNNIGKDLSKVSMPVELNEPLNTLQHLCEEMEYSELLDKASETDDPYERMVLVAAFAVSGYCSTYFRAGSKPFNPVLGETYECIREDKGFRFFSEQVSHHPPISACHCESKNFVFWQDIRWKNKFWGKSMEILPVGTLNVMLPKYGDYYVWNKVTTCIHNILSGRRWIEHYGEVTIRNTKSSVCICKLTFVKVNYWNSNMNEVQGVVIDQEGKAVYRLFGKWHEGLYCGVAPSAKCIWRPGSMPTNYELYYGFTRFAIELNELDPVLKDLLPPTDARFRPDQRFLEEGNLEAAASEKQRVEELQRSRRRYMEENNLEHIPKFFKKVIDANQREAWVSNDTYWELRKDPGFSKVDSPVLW
UniProt Q5BJF6: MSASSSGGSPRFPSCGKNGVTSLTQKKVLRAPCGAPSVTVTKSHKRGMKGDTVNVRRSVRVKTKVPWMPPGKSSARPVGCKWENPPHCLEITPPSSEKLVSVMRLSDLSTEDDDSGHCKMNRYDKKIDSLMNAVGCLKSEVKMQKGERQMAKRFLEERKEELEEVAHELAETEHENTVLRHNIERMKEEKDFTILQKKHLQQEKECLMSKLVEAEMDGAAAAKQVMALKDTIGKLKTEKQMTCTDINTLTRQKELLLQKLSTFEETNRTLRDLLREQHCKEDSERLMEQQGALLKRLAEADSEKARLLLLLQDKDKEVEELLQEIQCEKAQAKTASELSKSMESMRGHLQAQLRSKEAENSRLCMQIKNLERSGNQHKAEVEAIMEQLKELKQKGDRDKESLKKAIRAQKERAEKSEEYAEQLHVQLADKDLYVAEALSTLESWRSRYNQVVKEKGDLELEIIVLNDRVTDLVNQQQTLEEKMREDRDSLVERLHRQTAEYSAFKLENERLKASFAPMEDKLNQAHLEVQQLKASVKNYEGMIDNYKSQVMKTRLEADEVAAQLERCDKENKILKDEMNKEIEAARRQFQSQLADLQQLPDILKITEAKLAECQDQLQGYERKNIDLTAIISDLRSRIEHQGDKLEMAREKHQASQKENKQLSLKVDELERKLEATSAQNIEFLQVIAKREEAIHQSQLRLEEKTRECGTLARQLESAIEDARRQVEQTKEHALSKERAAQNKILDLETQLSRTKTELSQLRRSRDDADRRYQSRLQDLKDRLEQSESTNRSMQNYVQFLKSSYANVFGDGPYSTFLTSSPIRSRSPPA
UniProt Q5BKU9: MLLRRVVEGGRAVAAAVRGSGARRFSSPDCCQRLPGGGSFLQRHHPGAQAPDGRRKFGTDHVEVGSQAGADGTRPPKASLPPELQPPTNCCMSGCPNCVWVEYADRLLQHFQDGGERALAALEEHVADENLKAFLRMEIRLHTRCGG
UniProt Q8IVL6: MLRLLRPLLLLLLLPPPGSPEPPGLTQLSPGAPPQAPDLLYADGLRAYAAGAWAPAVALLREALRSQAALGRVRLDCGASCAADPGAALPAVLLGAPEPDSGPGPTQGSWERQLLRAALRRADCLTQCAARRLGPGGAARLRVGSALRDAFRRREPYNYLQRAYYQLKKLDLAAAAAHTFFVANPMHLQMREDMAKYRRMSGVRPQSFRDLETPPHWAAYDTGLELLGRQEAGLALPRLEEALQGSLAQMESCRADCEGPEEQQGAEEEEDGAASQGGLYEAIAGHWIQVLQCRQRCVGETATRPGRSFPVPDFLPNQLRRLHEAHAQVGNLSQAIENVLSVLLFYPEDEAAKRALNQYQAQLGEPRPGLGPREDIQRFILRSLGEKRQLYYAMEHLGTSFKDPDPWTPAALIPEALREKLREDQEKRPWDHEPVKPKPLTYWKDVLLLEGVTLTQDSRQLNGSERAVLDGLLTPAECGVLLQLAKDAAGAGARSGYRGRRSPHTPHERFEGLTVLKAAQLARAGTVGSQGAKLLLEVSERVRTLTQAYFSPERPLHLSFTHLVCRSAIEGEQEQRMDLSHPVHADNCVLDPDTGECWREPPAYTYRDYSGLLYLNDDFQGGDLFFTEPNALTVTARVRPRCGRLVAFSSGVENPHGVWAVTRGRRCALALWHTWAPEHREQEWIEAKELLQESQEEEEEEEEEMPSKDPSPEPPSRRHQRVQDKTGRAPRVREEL
UniProt Q9H6K4: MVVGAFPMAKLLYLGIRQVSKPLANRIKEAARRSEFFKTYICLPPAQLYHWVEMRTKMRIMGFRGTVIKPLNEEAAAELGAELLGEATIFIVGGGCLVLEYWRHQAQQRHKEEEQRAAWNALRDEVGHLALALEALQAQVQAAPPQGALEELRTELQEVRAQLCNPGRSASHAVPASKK
UniProt Q9H1P3, whole entry, looked up: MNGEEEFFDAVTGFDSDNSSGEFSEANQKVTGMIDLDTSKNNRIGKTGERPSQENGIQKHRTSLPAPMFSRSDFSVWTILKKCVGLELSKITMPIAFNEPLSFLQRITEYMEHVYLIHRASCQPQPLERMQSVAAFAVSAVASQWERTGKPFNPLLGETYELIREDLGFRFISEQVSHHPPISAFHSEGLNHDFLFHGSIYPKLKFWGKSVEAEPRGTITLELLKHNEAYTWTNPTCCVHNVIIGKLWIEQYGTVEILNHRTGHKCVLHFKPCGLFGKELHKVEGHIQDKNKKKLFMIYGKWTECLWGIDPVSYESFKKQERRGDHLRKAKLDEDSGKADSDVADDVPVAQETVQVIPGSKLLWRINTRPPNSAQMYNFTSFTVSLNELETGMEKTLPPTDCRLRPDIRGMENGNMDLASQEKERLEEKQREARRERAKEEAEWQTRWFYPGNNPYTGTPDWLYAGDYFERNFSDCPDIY
UniProt Q8WV22: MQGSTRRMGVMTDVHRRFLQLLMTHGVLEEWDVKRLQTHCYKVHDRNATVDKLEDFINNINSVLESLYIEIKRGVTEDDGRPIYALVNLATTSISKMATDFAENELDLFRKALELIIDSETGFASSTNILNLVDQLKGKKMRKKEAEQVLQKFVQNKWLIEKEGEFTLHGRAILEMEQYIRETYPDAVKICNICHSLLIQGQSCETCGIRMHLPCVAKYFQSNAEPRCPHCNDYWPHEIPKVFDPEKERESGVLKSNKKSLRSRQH

Experiments:
Assay in all cases: log2 fold change, soluble protein after heating vs DMSO (PISA); higher = thermal stabilisation; K562 cells, 10 uM, 30 min; active = over 0.2 and 3.5 SD of the protein, either way, in both replicates (recomputed)
[1] = compound: Cc1cn(-c2cc(NC(=O)c3ccc(C)c(Nc4nccc(-c5cccnc5)n4)c3)cc(C(F)(F)F)c2)cn1 [nilotinib]
In short: (§1)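 Thermal stability values are relative to control samples and come from duplicates. They are expressed as log2 fold changes. For measurement, K562 cells (2×10^6 cells/mL) received 10 μM compound for 30 min, and aliquots were heated for 3 min over 48°C-58°C, pooled, and extracted at 4°C in PBS with 0.5% NP-40. Soluble protein, the supernatant after 21,000xg for 90 min, was quantified by TMTpro 16plex LC-MS/MS with equalised channel sums.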

[2] = compound: Cc1nc(Nc2n[nH]c3c2CN(C(=O)N[C@H](CN(C)C)c2ccccc2)C3(C)C)c2sccc2n1
In short: as §1

[3] = compound: Cc1nc(Nc2ncc(C(=O)Nc3c(C)cccc3Cl)s2)cc(N2CCN(CCO)CC2)n1 [dasatinib]
In short: as §1

[4] = compound: Cc1ncc(-c2ccnc(Nc3ccc(S(C)(=O)=O)cc3)n2)n1C(C)C
In short: as §1

[5] = compound: Cn1cncc1[C@@](N)(c1ccc(Cl)cc1)c1ccc2c(c1)c(-c1cccc(Cl)c1)cc(=O)n2C [tipifarnib]
In short: as §1

[6] = compound: Cc1cccc(CC(=O)N2CCc3c2ccc(-c2cn(C)c4ncnc(N)c24)c3F)n1
In short: as §1

[7] = compound: Cn1cc(-c2ccc3c(c2)CCN3C(=O)Cc2cccc(C(F)(F)F)c2)c2c(N)ncnc21
In short: as §1

[8] = compound: Cn1cc(-c2ccc3nnc(C(F)(F)c4ccc5ncccc5c4)n3n2)cn1
In short: as §1

[9] = compound: Cc1ccc(NC(=O)c2ccc(CN3CC[C@H](N(C)C)C3)c(C(F)(F)F)c2)cc1Nc1nccc(-c2cncnc2)n1 [bafetinib]
In short: as §1

[10] = compound: FC(F)(F)c1ccc(/C=C/c2nc(COc3ccc(CCCCn4ccnn4)cc3)co2)cc1 [mubritinib]
In short: as §1

Measured: log2 fold change

ODC1 (UniProt P11926)
inactive: [1] -0.249 | [2] -0.132 | [3] -0.022 | [4] -0.346 | [5] 0.023

OXR1 isoform 2 (UniProt Q8N573)
inactive: [6] -0.009 | [1] -0.028 | [2] -0.002 | [3] 0 | [4] -0.094 | [7] 0.15 | [8] 0.099 | [5] -0.019

NUDT2 (UniProt P50583)
inactive: [9] -0.031 | [1] -0.03 | [2] 0.044 | [3] -0.149 | [4] -0.001 | [7] -0.004 | [8] 0.034 | [5] -0.048 | [10] 0

OSBPL6 isoform 5 (UniProt Q9BZF3)
inactive: [1] 1.04 | [2] -0.045 | [4] 0.013 | [8] -0.006 | [5] -0.09 | [10] 0.047

ODF2 (UniProt Q5BJF6)
inactive: [6] 0.171

OXLD1 (UniProt Q5BKU9)
inactive: [1] 0.074 | [2] -0.055 | [4] -0.032 | [10] 0.083

Taken from the entries so far (two entries):
ODC1 (UniProt P11926)
inactive: [1] -0.249 | [2] -0.132 | [3] -0.022 | [4] -0.346 | [5] 0.023

OXR1 isoform 2 (UniProt Q8N573)
inactive: [6] -0.009 | [1] -0.028 | [2] -0.002 | [3] 0 | [4] -0.094 | [7] 0.15 | [8] 0.099 | [5] -0.019

Later entries

P3H3 (UniProt Q8IVL6)
inactive: [10] 0.063

OPA3 isoform 2 (UniProt Q9H6K4)
inactive: [3] -0.043 | [7] -0.09 | [8] -0.097 | [10] 0.072

OSBPL2 (UniProt Q9H1P3)
inactive: [7] 0.37 | [5] -0.009 | [10] 0.465

NSMCE1 (UniProt Q8WV22)
inactive: [1] 0.478 | [2] 0.305 | [3] -0.001 | [4] -0.15 | [7] 0.023 | [8] -0.032 | [5] 0.047 | [10] -0.123
